The nature of this data set: Fluorescence of the compounds at a series of concentrations. As to conditions: compound's own fluorescence in the NAMPT assay read-out.

Regarding `O=C(NCCCN1CCCC1=O)c1ccc(N2CCc3ccccc32)s1` [G122-1637], the “Concentration at which compound fluorescence was detected” value is given as more than 1562 nM.

Take `CCCn1c(=O)c(-c2ccc(C(=O)NCc3cccnc3)cc2)nc2ccccc21` [M049-0244]: the “Concentration at which compound fluorescence was detected” value was more than 1562 nM.

These data come from paper PMC4521150, “Discovery of Novel Inhibitors and Fluorescent Probe Targeting NAMPT” (Scientific Reports, 2015).
